The assay has as its target T1, Hog1 (Saccharomyces cerevisiae, UniProt P32485).
T1 sequence (P32485 2-435): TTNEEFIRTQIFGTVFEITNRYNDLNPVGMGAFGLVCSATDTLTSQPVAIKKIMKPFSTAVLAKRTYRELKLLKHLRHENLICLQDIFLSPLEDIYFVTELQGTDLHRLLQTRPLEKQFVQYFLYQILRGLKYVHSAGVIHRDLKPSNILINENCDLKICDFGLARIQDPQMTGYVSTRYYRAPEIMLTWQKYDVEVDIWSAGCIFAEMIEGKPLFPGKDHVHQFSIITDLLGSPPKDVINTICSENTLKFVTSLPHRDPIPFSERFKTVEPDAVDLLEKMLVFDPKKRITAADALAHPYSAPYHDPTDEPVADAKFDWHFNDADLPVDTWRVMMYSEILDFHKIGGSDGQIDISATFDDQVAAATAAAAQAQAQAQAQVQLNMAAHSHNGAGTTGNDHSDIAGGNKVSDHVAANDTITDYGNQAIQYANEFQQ
Kind of assay: in vitro radiometric kinase assay with biotinylated Sic1 peptide. Format: biochemical.

These results are taken from publication PMC3104989, “Design, Synthesis, and Characterization of a Highly Effective Hog1 Inhibitor: A Powerful Tool for Analyzing MAP Kinase Signaling in Yeast” (PLoS ONE, 2011).

For orientation: IC50 means the concentration needed to halve the response being measured. The low end stands for inhibition by little substance, the high end for a need for much substance. For the compound `C[S+]([O-])c1ccc(-c2nc(-c3ccncc3)c(-c3ccc(F)cc3)[nH]2)cc1` (stereo not shown) [SB203580], 49.5 ± 1.6 nM corresponded to half-maximal inhibition (IC50).
